# The supplement of paper PMC10849652
# The chains behind the UniProt entries cited, without tags or fusion partners. Where a name states a change or a piece, a line headed by the entry shows the natural chain unless it says otherwise.
# UniProt Q8IU81: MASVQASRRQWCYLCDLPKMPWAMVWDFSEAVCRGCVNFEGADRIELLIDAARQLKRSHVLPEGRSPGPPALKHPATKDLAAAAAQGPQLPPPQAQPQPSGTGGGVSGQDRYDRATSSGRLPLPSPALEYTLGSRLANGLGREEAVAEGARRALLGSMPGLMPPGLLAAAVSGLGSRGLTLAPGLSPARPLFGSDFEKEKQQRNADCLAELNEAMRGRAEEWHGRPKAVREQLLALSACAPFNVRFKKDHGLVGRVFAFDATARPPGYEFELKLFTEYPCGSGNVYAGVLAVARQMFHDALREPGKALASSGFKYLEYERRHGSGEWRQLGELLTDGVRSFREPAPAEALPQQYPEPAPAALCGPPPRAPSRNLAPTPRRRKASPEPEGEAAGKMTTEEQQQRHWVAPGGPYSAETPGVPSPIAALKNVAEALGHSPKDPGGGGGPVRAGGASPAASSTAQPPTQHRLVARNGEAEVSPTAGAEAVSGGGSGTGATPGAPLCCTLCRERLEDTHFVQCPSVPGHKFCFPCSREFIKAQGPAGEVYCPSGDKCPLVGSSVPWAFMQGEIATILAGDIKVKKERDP
# UniProt Q8NFU5: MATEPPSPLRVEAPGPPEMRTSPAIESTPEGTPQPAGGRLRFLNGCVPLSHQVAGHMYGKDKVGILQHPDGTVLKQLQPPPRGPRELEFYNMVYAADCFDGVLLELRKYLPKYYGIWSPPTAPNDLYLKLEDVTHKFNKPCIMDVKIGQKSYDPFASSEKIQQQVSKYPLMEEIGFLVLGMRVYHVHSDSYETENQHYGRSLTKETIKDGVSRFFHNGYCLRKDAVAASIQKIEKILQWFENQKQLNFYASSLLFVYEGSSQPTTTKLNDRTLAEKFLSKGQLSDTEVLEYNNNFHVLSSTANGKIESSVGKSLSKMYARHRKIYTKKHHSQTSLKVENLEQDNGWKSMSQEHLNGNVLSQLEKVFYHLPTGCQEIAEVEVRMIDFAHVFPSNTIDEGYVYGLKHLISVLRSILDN
# UniProt Q9NPH3, whole entry, looked up: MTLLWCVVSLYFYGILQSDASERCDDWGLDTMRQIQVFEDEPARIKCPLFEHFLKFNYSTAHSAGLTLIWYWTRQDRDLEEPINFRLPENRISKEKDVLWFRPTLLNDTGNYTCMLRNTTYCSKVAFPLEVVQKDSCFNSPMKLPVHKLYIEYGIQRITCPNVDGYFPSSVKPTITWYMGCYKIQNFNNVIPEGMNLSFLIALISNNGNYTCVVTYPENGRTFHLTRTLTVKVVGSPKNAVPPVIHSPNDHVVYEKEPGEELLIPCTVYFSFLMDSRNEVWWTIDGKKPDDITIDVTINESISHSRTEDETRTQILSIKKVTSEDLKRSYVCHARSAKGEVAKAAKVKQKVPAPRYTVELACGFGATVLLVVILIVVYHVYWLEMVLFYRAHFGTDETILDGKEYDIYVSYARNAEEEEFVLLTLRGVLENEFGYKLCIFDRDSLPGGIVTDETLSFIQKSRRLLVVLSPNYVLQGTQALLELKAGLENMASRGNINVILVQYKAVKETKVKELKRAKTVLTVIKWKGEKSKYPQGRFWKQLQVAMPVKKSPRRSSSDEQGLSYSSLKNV
# UniProt Q13352: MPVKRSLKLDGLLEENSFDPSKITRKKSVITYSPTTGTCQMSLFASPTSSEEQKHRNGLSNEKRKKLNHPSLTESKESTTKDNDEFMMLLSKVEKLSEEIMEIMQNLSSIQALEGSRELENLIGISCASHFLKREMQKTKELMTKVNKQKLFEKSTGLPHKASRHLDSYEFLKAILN
# UniProt P01877, whole entry, looked up: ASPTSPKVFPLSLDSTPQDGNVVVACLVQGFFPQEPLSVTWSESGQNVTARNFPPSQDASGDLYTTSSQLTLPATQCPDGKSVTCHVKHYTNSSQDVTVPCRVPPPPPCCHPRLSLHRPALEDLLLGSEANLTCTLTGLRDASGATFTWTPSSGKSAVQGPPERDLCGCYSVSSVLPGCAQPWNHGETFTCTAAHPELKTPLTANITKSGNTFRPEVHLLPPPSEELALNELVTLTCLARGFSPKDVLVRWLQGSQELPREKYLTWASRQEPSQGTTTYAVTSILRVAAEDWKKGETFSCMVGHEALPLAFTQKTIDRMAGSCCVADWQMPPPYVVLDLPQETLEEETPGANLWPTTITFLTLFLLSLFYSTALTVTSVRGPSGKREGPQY
# UniProt Q6DN90: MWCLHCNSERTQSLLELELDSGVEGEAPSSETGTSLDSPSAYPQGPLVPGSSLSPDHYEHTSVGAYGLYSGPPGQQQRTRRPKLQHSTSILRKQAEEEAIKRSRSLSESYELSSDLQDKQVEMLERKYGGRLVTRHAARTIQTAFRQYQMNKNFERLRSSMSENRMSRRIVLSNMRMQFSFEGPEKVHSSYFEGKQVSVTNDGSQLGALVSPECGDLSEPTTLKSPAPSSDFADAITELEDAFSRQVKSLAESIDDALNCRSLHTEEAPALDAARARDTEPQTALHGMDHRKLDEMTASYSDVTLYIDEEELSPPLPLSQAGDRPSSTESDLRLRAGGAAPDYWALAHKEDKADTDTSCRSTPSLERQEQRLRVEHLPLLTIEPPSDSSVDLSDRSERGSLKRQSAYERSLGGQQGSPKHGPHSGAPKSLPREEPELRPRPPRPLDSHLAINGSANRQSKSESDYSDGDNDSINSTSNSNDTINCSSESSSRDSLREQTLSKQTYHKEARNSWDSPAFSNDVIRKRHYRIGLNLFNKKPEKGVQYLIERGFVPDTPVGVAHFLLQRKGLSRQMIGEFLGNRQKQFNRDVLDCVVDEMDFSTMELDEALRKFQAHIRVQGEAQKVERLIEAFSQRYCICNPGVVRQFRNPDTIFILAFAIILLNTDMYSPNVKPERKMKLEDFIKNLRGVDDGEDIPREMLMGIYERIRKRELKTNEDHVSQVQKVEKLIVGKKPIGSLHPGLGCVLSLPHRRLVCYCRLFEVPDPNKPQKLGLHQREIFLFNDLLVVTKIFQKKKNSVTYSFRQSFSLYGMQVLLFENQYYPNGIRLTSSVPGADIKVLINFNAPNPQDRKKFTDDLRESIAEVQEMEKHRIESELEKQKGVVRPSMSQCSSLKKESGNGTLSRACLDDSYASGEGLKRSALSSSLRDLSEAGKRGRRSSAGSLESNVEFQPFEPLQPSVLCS
# UniProt Q9NRY2: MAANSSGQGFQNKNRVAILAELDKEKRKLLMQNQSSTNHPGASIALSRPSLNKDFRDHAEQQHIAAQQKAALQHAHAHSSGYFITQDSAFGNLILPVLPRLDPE
# UniProt Q9UNL4, whole entry, looked up: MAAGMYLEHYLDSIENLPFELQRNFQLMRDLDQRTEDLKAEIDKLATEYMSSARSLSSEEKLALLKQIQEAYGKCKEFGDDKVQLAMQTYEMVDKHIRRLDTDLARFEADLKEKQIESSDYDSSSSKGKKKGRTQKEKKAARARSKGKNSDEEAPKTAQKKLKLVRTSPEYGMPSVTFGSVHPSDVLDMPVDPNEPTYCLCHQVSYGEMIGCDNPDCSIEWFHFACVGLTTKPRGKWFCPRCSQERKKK
# UniProt Q9BW83: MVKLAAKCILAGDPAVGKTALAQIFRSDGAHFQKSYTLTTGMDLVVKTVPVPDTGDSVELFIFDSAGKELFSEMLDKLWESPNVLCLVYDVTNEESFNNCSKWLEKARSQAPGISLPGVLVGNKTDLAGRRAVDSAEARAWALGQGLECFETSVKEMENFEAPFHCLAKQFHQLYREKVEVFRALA
# UniProt Q9Y573: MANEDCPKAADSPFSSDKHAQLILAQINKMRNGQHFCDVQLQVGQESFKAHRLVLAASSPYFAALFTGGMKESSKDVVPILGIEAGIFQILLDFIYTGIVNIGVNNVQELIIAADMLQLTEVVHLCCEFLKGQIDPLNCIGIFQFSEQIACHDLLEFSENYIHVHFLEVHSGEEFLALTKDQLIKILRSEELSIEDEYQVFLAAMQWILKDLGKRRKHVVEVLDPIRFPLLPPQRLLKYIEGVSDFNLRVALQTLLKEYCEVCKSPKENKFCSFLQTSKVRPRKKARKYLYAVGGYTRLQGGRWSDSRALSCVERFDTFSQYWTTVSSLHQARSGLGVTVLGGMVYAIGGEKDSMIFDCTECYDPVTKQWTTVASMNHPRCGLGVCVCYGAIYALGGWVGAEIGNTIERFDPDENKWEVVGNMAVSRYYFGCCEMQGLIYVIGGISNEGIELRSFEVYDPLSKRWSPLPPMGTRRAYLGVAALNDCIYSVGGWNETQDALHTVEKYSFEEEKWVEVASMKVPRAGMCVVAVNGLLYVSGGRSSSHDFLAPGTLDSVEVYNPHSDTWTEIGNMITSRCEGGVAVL
# UniProt P22304: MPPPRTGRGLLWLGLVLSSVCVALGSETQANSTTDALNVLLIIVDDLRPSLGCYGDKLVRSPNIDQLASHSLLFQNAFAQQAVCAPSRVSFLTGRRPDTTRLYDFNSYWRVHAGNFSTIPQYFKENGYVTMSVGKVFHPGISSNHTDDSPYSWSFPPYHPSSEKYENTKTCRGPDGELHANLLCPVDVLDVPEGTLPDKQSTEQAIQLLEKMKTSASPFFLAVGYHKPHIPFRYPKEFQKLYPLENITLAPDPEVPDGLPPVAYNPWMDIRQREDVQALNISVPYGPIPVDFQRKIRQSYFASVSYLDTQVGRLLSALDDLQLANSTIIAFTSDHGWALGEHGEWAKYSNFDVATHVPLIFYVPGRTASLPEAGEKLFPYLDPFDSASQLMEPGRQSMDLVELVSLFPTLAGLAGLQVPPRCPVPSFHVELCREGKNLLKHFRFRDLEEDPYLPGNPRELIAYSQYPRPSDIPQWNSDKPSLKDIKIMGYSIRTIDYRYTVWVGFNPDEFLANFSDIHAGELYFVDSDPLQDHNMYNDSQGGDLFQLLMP
# UniProt Q86VI3: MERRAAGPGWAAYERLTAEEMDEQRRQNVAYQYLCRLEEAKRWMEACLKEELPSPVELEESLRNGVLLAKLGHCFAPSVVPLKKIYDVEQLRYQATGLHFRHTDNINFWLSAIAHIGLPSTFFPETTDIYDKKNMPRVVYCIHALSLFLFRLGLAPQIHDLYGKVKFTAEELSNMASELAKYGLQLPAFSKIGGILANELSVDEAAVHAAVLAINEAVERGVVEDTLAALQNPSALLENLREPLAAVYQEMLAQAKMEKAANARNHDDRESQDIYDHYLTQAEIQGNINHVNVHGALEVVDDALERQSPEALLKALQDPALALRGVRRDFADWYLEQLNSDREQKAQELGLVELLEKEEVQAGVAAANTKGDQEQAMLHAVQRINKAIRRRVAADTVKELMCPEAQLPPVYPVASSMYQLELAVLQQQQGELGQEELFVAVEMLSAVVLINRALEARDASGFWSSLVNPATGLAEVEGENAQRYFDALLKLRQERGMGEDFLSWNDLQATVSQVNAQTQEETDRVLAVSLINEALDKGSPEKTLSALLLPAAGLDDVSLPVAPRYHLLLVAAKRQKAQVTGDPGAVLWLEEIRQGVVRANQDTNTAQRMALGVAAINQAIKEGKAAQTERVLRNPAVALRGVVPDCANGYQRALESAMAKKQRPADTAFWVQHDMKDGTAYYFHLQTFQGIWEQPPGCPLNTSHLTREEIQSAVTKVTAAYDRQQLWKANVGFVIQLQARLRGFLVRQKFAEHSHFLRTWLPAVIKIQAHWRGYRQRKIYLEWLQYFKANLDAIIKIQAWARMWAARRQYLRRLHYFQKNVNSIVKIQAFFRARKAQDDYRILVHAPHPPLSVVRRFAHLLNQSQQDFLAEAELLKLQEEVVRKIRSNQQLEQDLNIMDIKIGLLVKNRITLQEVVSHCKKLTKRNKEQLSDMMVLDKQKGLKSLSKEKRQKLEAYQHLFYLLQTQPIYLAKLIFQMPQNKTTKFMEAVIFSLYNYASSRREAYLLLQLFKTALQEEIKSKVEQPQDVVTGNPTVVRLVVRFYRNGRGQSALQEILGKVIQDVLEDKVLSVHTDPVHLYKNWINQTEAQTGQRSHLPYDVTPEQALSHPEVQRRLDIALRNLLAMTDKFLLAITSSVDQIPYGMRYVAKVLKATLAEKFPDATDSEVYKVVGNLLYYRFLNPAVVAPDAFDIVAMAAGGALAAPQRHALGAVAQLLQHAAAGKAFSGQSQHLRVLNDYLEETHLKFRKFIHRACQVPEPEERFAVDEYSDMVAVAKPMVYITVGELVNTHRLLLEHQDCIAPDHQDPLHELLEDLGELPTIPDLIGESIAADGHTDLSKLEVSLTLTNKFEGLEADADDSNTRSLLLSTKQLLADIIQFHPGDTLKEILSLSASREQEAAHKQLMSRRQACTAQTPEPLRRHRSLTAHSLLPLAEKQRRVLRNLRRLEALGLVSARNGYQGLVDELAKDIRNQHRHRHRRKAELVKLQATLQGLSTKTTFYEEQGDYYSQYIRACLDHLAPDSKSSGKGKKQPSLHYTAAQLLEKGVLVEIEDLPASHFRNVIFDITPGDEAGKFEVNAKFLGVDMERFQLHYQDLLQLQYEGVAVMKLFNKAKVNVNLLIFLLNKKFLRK
# IGKV3D-11, A0A0A0MRZ8, UniProt A0A0A0MRZ8, whole entry, looked up: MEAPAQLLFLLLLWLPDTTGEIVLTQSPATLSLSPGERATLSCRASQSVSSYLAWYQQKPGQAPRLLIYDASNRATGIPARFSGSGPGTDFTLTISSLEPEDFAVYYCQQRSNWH
# The list shows a part of the results.
# Key:
# Assay in all cases: log2 fold change, soluble protein after heating vs DMSO (PISA); higher = thermal stabilisation; K562 cells, 10 uM, 30 min; active = over 0.2 and 3.5 SD of the protein, either way, in both replicates (recomputed)
# filanesib = compound: CON(C)C(=O)N1N=C(c2cc(F)ccc2F)S[C@@]1(CCCN)c1ccccc1 [filanesib]
# How it was run: (§1)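 K562 cells at 2×10^6 cells/mL were exposed to 10 μM compound for 30 min, then aliquots were heated for 3 min across 48°C-58°C, pooled, and extracted in PBS containing 0.5% NP-40 at 4°C. The supernatant after 21,000xg for 90 min was taken as soluble protein and measured by TMTpro 16plex LC-MS/MS with channel sums equalised. Thermal stability is reported relative to control samples, with values from duplicates. Fold changes are given on a log2 scale.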
# zotarolimus = compound: CO[C@H]1C[C@@H]2CC[C@@H](C)[C@@](O)(O2)C(=O)C(=O)N2CCCC[C@H]2C(=O)O[C@H]([C@H](C)C[C@@H]2CC[C@H](n3cnnn3)[C@H](OC)C2)CC(=O)[C@H](C)/C=C(\C)[C@@H](O)[C@@H](OC)C(=O)[C@H](C)C[C@H](C)/C=C/C=C/C=C/1C [zotarolimus]
# How it was run: as §1
# alisertib = compound: COc1cc(Nc2ncc3c(n2)-c2ccc(Cl)cc2C(c2c(F)cccc2OC)=NC3)ccc1C(=O)O [alisertib]
# How it was run: as §1
# [1] = compound: COc1cc2nc(-c3cc(F)ccc3O)nc(N[C@@H]3CNC[C@H]3C(C)(C)O)c2cc1OC
# How it was run: as §1
# [2] = compound: COc1cccc2cc(-c3nc([C@H]4CC[C@H](C(=O)O)CC4)n4ncnc(N)c34)[nH]c12
# How it was run: as §1
# lapatinib = compound: CS(=O)(=O)CCNCc1ccc(-c2ccc3ncnc(Nc4ccc(OCc5cccc(F)c5)c(Cl)c4)c3c2)o1 [lapatinib]
# How it was run: as §1
# [3] = compound: CS(=O)(=O)c1ccc(-c2cnc(N)c(C(=O)Nc3ccccc3)n2)cc1
# How it was run: as §1
# [4] = compound: C[C@H](C1=CC=C(C=C1)C(=O)NC2=C3C=CNC3=NC=C2)N
# How it was run: as §1
# duvelisib = compound: C[C@H](Nc1ncnc2nc[nH]c12)c1cc2cccc(Cl)c2c(=O)n1-c1ccccc1 [duvelisib]
# How it was run: as §1
# tozasertib = compound: Cc1cc(Nc2cc(N3CCN(C)CC3)nc(Sc3ccc(NC(=O)C4CC4)cc3)n2)n[nH]1 [tozasertib]
# How it was run: as §1
# [5] = compound: Cc1cc(SCc2sc(-c3ccc(C(F)(F)F)cc3)nc2C)ccc1OCC(=O)O
# How it was run: as §1
# ispinesib = compound: Cc1ccc(C(=O)N(CCCN)[C@@H](c2nc3cc(Cl)ccc3c(=O)n2Cc2ccccc2)C(C)C)cc1 [ispinesib]
# How it was run: as §1
# gefitinib = compound: COc1cc2ncnc(Nc3ccc(F)c(Cl)c3)c2cc1OCCCN1CCOCC1 [gefitinib]
# How it was run: as §1
# pictilisib = compound: CS(=O)(=O)N1CCN(Cc2cc3nc(-c4cccc5[nH]ncc45)nc(N4CCOCC4)c3s2)CC1 [pictilisib]
# How it was run: as §1
# [6] = compound: C[C@@H]1COCCN1C2=NC(=NC(=C2)C3(CC3)S(=O)(=O)C)C4=C5C=CNC5=CC=C4
# How it was run: as §1
# gandotinib = compound: Cc1cc(Nc2cc(CN3CCOCC3)c3nc(C)c(Cc4ccc(Cl)cc4F)n3n2)n[nH]1 [gandotinib]
# How it was run: as §1
# idasanutlin = compound: COc1cc(C(=O)O)ccc1NC(=O)[C@@H]1N[C@@H](CC(C)(C)C)[C@](C#N)(c2ccc(Cl)cc2F)[C@H]1c1cccc(Cl)c1F [idasanutlin]
# How it was run: as §1
target,measurement,setting,value
IRF2BP1 (UniProt Q8IU81),log2 fold change,filanesib,inactive: 0.033
same,log2 fold change,zotarolimus,inactive: 0.061
same,log2 fold change,alisertib,inactive: -0.03
same,log2 fold change,[1],inactive: -0.011
same,log2 fold change,[2],inactive: 0.19
same,log2 fold change,lapatinib,inactive: -0.194
same,log2 fold change,[3],inactive: -0.004
same,log2 fold change,[4],inactive: -0.051
same,log2 fold change,duvelisib,inactive: -0.245
same,log2 fold change,tozasertib,inactive: -0.002
same,log2 fold change,[5],inactive: 0.27
same,log2 fold change,ispinesib,inactive: 0.046
IL2RG (UniProt P31785),log2 fold change,zotarolimus,inactive: -0.267
same,log2 fold change,gefitinib,inactive: 0.123
same,log2 fold change,pictilisib,inactive: 0.035
same,log2 fold change,[6],inactive: -0.049
same,log2 fold change,[4],inactive: -0.45
same,log2 fold change,gandotinib,inactive: 0.026
same,log2 fold change,tozasertib,inactive: 0.103
IPMK (UniProt Q8NFU5),log2 fold change,gefitinib,inactive: 0.091
IGFBP6 (UniProt P24592),log2 fold change,zotarolimus,active: -1.03
same,log2 fold change,idasanutlin,active: 0.776
same,log2 fold change,[4],inactive: -0.035
same,log2 fold change,[5],inactive: 0.14
same,log2 fold change,ispinesib,active: -0.712
ING3 (UniProt Q9NXR8),log2 fold change,pictilisib,inactive: -0.148
same,log2 fold change,gandotinib,inactive: 0.02
IGSF1 isoform 4 (UniProt Q8N6C5),log2 fold change,idasanutlin,inactive: -0.18
same,log2 fold change,alisertib,inactive: 0.171
same,log2 fold change,[1],inactive: 0.077
same,log2 fold change,[2],inactive: 0.113
same,log2 fold change,lapatinib,inactive: -0.01
INTS12 (UniProt Q96CB8),log2 fold change,zotarolimus,inactive: -0.113
same,log2 fold change,[4],inactive: -0.155
same,log2 fold change,duvelisib,inactive: -0.103
same,log2 fold change,tozasertib,inactive: 0.17
same,log2 fold change,[5],inactive: 0.251
IL1RAP isoform 5 (UniProt Q9NPH3),log2 fold change,zotarolimus,inactive: 0.003
same,log2 fold change,idasanutlin,inactive: -0.507
same,log2 fold change,[1],inactive: 0.12
same,log2 fold change,lapatinib,inactive: -0.057
same,log2 fold change,pictilisib,inactive: 0.007
same,log2 fold change,[6],inactive: 0.14
same,log2 fold change,[4],inactive: 0.342
same,log2 fold change,duvelisib,inactive: 0.168
same,log2 fold change,gandotinib,inactive: -0.361
same,log2 fold change,tozasertib,inactive: -0.12
same,log2 fold change,[5],inactive: -0.006
same,log2 fold change,ispinesib,inactive: -0.283
ITGB3BP isoform 5 (UniProt Q13352),log2 fold change,gefitinib,inactive: -0.143
same,log2 fold change,ispinesib,inactive: 0.039
INTS1 (UniProt Q8N201),log2 fold change,filanesib,inactive: -0.318
same,log2 fold change,alisertib,inactive: 0.086
same,log2 fold change,gefitinib,inactive: -0.054
same,log2 fold change,[2],inactive: 0.093
same,log2 fold change,pictilisib,inactive: 0.232
same,log2 fold change,[3],inactive: 0.118
same,log2 fold change,[6],inactive: -0.099
same,log2 fold change,duvelisib,inactive: 0.221
same,log2 fold change,gandotinib,inactive: 0.142
same,log2 fold change,tozasertib,inactive: -0.071
same,log2 fold change,[5],inactive: -0.126
same,log2 fold change,ispinesib,inactive: -0.006
IL17RA (UniProt Q96F46),log2 fold change,filanesib,inactive: 0.024
same,log2 fold change,idasanutlin,inactive: 0.07
same,log2 fold change,alisertib,inactive: -0.069
same,log2 fold change,[2],inactive: -0.528
same,log2 fold change,[3],inactive: -0.159
same,log2 fold change,tozasertib,inactive: 0.021
IKZF1 isoform 2 (UniProt Q13422),log2 fold change,filanesib,inactive: -0.075
same,log2 fold change,zotarolimus,inactive: 0.1
same,log2 fold change,alisertib,inactive: 0.079
same,log2 fold change,gefitinib,inactive: -0.044
same,log2 fold change,[2],inactive: -0.031
same,log2 fold change,[3],inactive: 0.081
same,log2 fold change,[4],inactive: 0.059
same,log2 fold change,ispinesib,inactive: -0.034
IGHA2 (UniProt P01877),log2 fold change,gefitinib,inactive: 0.235
IGLC3 (UniProt P0DOY3),log2 fold change,alisertib,inactive: 0.156
same,log2 fold change,gefitinib,inactive: 0.346
same,log2 fold change,[2],inactive: -0.193
ITM2C (UniProt Q9NQX7),log2 fold change,filanesib,inactive: -0.275
same,log2 fold change,zotarolimus,inactive: -0.047
same,log2 fold change,idasanutlin,inactive: -0.061
same,log2 fold change,[1],inactive: -0.12
same,log2 fold change,gefitinib,inactive: -0.092
same,log2 fold change,lapatinib,inactive: -0.045
same,log2 fold change,pictilisib,inactive: -0.149
same,log2 fold change,[3],inactive: 0.117
same,log2 fold change,[6],inactive: 0.239
same,log2 fold change,[4],inactive: 0.137
same,log2 fold change,gandotinib,inactive: 0.083
same,log2 fold change,[5],inactive: 0.011
same,log2 fold change,ispinesib,inactive: 0.051
IQSEC1 (UniProt Q6DN90),log2 fold change,filanesib,inactive: 0.015
same,log2 fold change,[3],inactive: -0.007
IQSEC2 (UniProt Q5JU85),log2 fold change,zotarolimus,inactive: -0.081
same,log2 fold change,alisertib,inactive: -0.062
same,log2 fold change,[1],inactive: -0.202
same,log2 fold change,gefitinib,inactive: 0.109
same,log2 fold change,[2],inactive: -0.137
same,log2 fold change,lapatinib,inactive: -0.12
same,log2 fold change,[4],inactive: 0.255
same,log2 fold change,duvelisib,inactive: -0.114
same,log2 fold change,[5],inactive: 0.416
INIP (UniProt Q9NRY2),log2 fold change,filanesib,inactive: 0.14
same,log2 fold change,alisertib,inactive: -0.076
same,log2 fold change,[1],inactive: -0.275
same,log2 fold change,gefitinib,inactive: 0.077
same,log2 fold change,[2],inactive: 0.109
same,log2 fold change,lapatinib,inactive: -0.072
same,log2 fold change,[3],inactive: -0.02
same,log2 fold change,[6],inactive: -0.05
INHBE (UniProt P58166),log2 fold change,filanesib,inactive: 0.196
same,log2 fold change,alisertib,inactive: -0.037
same,log2 fold change,[2],inactive: -0.035
same,log2 fold change,[3],inactive: 0.001
IL23R (UniProt Q5VWK5),log2 fold change,zotarolimus,inactive: -0.058
same,log2 fold change,idasanutlin,inactive: -0.009
same,log2 fold change,[4],inactive: 0.537
same,log2 fold change,duvelisib,inactive: 0.097
same,log2 fold change,tozasertib,inactive: -0.064
same,log2 fold change,[5],inactive: 0.094
ISL2 (UniProt H0YN25),log2 fold change,duvelisib,inactive: -0.111
same,log2 fold change,[5],inactive: -0.197
ING4 (UniProt Q9UNL4),log2 fold change,idasanutlin,inactive: -0.201
same,log2 fold change,[6],inactive: 0.014
same,log2 fold change,duvelisib,inactive: 0.027
same,log2 fold change,tozasertib,inactive: 0.235
same,log2 fold change,[5],inactive: -0.052
IFT27 (UniProt Q9BW83),log2 fold change,zotarolimus,inactive: -0.161
same,log2 fold change,idasanutlin,inactive: 0.02
same,log2 fold change,[1],inactive: 0.138
same,log2 fold change,lapatinib,inactive: 0.028
same,log2 fold change,pictilisib,inactive: -0.094
same,log2 fold change,[4],inactive: 0.075
same,log2 fold change,duvelisib,inactive: 0.034
same,log2 fold change,gandotinib,inactive: 0.191
same,log2 fold change,[5],inactive: -0.053
IPP (UniProt Q9Y573),log2 fold change,idasanutlin,inactive: 0.051
IDUA (UniProt P35475),log2 fold change,alisertib,inactive: 0.259
same,log2 fold change,[1],inactive: -0.001
same,log2 fold change,[2],inactive: -0.034
same,log2 fold change,lapatinib,inactive: -0.017
same,log2 fold change,pictilisib,inactive: 0.029
same,log2 fold change,[6],inactive: -0.032
same,log2 fold change,gandotinib,inactive: -0.012
IDS (UniProt P22304),log2 fold change,[1],inactive: 0.198
same,log2 fold change,lapatinib,inactive: -0.001
same,log2 fold change,pictilisib,inactive: -0.012
same,log2 fold change,gandotinib,inactive: 0.019
same,log2 fold change,ispinesib,inactive: 0.015
IQGAP3 (UniProt Q86VI3),log2 fold change,ispinesib,inactive: -0.072
IGHG1 (UniProt P01857),log2 fold change,filanesib,inactive: 0.873
same,log2 fold change,alisertib,inactive: 0.606
same,log2 fold change,gefitinib,inactive: 0.099
same,log2 fold change,[2],inactive: -0.169
same,log2 fold change,[3],inactive: 0.136
same,log2 fold change,duvelisib,inactive: -0.156
same,log2 fold change,[5],inactive: 0.033
IGFBP5 (UniProt P24593),log2 fold change,filanesib,inactive: -0.141
same,log2 fold change,alisertib,inactive: 0.052
same,log2 fold change,[2],inactive: 0.035
same,log2 fold change,[3],inactive: -0.033
same,log2 fold change,[6],inactive: 0.021
same,log2 fold change,tozasertib,inactive: 0.144
ITGB1BP1 (UniProt O14713),log2 fold change,[6],inactive: -0.029
same,log2 fold change,duvelisib,inactive: 0.04
same,log2 fold change,tozasertib,inactive: -0.085
same,log2 fold change,[5],inactive: -0.284
same,log2 fold change,ispinesib,inactive: -0.007
"IGKV3D-11, A0A0A0MRZ8",log2 fold change,gefitinib,inactive: 0.157

# Part of the list above, with tabs.
target	measurement	setting	value
IL2RG (UniProt P31785)	log2 fold change	[6]	inactive: -0.049
IGFBP6 (UniProt P24592)	log2 fold change	zotarolimus	active: -1.03
IGLC3 (UniProt P0DOY3)	log2 fold change	[2]	inactive: -0.193
IQSEC2 (UniProt Q5JU85)	log2 fold change	[4]	inactive: 0.255
